The values that follow come from article PMC7819943, “Rice protein-binding microarrays: a tool to detect cis-acting elements near promoter regions in rice”.

Chains of the proteins cited; added tags and fusions are not shown.
UniProt Q0JBA9, entry or part of it: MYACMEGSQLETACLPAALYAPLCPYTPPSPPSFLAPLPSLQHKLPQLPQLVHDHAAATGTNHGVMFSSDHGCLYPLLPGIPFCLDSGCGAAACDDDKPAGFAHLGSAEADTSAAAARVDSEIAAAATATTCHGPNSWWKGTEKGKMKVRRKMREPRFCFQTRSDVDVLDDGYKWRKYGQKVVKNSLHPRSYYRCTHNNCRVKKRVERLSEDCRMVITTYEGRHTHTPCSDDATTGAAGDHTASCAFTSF

Some of the results follow.

The target of the assay is OsWRKY34 (Oryza sativa, UniProt Q0JBA9 1-250). As to the kind of experiment: protein-binding microarray (RPBM); PBS, 2% BSA, 51.3 ng/ul salmon testes DNA, 50 uM zinc acetate, 200 nM TF, 25 C, 1 h; high values mean tight binding. The note with it: protein: recombinant; tags: N-terminal polyhistidine and DsRed monomer fusion (pET32a); label: CyDye5-dUTP incorporated in the synthesized complementary strand; 3' TTTTT single-stranded linker to array surface; dsDNA, one strand shown. The method, boiled down: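 Binding signal is defined as the fluorescence intensity of each feature in arbitrary units, read on an Axon 4000B scanner. Transcription factors with N-terminal polyhistidine and DsRed fusions came from E. coli BL21-CodonPlus and were purified on Ni–NTA. They were incubated at 200 nM for 1 h at 25 °C on a custom Agilent array that had been made double-stranded with Cy5-dUTP, with 50 µM zinc acetate present, and the array was washed.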
As for “GATCTCGCTTCTGCCCCGTGGCCACATGCGAACATAACCACGGAGTCACCTAGTGCAG”, the binding signal was 8520 fluorescence intensity (a.u.). With “AGTAATGATATTTTCTTGTCTTGGTCTTGGCGCCATTTACCGGAGTCACCTAGTGCAG” the figure was 8050 fluorescence intensity (a.u.); with “TCCTCCATTCCATTCCATTTCTCCTCACGCTACCGCCACACGGAGTCACCTAGTGCAG”, 11800 fluorescence intensity (a.u.).

Consider “TCATGCTGGCCTGTTCGAAACACTTCTTGTTATTGCTTGTCGGAGTCACCTAGTGCAG”, for which the binding signal was 9130 fluorescence intensity (a.u.).

Consider “CACTAAGTACTCAACTCTTCTTCAACGTGTCATTGCTCACCGGAGTCACCTAGTGCAG”, for which the binding signal is 8060 fluorescence intensity (a.u.). Regarding “CGTCTCACTCCTCTCTCTCTATCTCCTGTCCTGCCCTGCCCGGAGTCACCTAGTGCAG”, the binding signal was 8030 fluorescence intensity (a.u.). Then “TGGGATTTTGCTGCCTGGTTTGGATAACGCTAAATTAAATCGGAGTCACCTAGTGCAG”, with 9820 fluorescence intensity (a.u.). Take “GTATCATTACTTGGTTTTTTTTTGACCAATTTGGCAGTCACGGAGTCACCTAGTGCAG”: the binding signal is 8090 fluorescence intensity (a.u.). With “CGACGACGAGGTTTAGGTAGGGGTTCTTGGCTTGTCGGCGCGGAGTCACCTAGTGCAG”, the binding signal was 8070 fluorescence intensity (a.u.).

Regarding “CTCTGCCCCACGTTGGCTCGCGTCCGCGGCCCATCTCCACCGGAGTCACCTAGTGCAG”, the binding signal is 12400 fluorescence intensity (a.u.). For “ATGCATTTGTTTGTGCCAAATGCCTCGCCTTATCCTGTCACGGAGTCACCTAGTGCAG”, the binding signal was 8320 fluorescence intensity (a.u.). Consider “GGCCTGCTTCCGCTTCTCCGAATGATCTTGGTTTTGGTTTCGGAGTCACCTAGTGCAG”, for which the binding signal was 9420 fluorescence intensity (a.u.). As to “CCGTTGACTCACCAATCGCCACACACATTGTCGACAAGTACGGAGTCACCTAGTGCAG”, the binding signal is 10600 fluorescence intensity (a.u.).

As to “AATGGGACTTGGGCGATTGTGCATTAGATGTGTTTACTACCGGAGTCACCTAGTGCAG”, the binding signal was 8980 fluorescence intensity (a.u.).

For “TTTATGCTTTTCGTATCGTTTGCCCTTATTGTGCATTCGACGGAGTCACCTAGTGCAG”, the binding signal was 12700 fluorescence intensity (a.u.). Regarding “GGATTTTATATGTATTTATCAAAGTTTGGTATCAATCTAACGGAGTCACCTAGTGCAG”, the binding signal was 8920 fluorescence intensity (a.u.). Then “CCGGGGCCGGCAGCGGCGGGCGGGCGGGCTCGAGCGGTGGCGGAGTCACCTAGTGCAG”, with 9020 fluorescence intensity (a.u.). Then “CCACTTGTACAAGGCGCTGGTCATTTGCATGTAGTAAAACCGGAGTCACCTAGTGCAG”, with 9000 fluorescence intensity (a.u.); and “TTTCGCAAGCCCATTTTCTGATTCATGTTCTGATTCTATGCGGAGTCACCTAGTGCAG”, with 8110 fluorescence intensity (a.u.).

With “TTTGGTTGGATTGGATTGGATTGGATTGGCTGCTTCCCTGCGGAGTCACCTAGTGCAG”, the binding signal was 11900 fluorescence intensity (a.u.). For “CATATATATCTCCAGTTTTTATATAGTGTAGCCACTTGTTCGGAGTCACCTAGTGCAG”, the binding signal is 9500 fluorescence intensity (a.u.). Consider “ATTTCCAGCCTCCGCCGACACAACGCTACCGCAGACCCATCGGAGTCACCTAGTGCAG”, for which the binding signal is 9330 fluorescence intensity (a.u.). With “GTCCAAACTTCAGCCACCATCGTTACCACATACGTGCATTCGGAGTCACCTAGTGCAG” the figure was 10700 fluorescence intensity (a.u.).

With “CTTACCTGCTGCTGCTTGCCTTACGCCTACCACATCGCTCCGGAGTCACCTAGTGCAG”, the binding signal is 10600 fluorescence intensity (a.u.). As to “CGTATGCAGCAGTTTCATGGGCCTGGTTTCTGGCGTTACTCGGAGTCACCTAGTGCAG”, the binding signal is 8350 fluorescence intensity (a.u.). For the sequence “CCGGATCACCAAGGACACCTCCACCTCGCTCTACACCATGCGGAGTCACCTAGTGCAG”, the binding signal is 8210 fluorescence intensity (a.u.). As to “TAGATCTCTTGCTTTGGGTGTTGTTTGCTCTAGGTGTTCTCGGAGTCACCTAGTGCAG”, the binding signal was 8250 fluorescence intensity (a.u.). Then “CCCTATAAACATCCGGATATCACACACATTCACACTCACACGGAGTCACCTAGTGCAG”, with 10100 fluorescence intensity (a.u.). For the sequence “TAAGTTAGCACCTGTTCTACCGCTTTGTTAGGGTAGGTTTCGGAGTCACCTAGTGCAG”, the binding signal is 12500 fluorescence intensity (a.u.). Take “ACCCTTTGGACTCTCGTCAGTCGTCGGAAACCCTCGACCACGGAGTCACCTAGTGCAG”: the binding signal is 8160 fluorescence intensity (a.u.).

As to “TTAAGATTCGTGCAGCCTCACTCGGACTTGTCATCTGATCCGGAGTCACCTAGTGCAG”, the binding signal was 8340 fluorescence intensity (a.u.). Consider “ATCTTAAGCTGTCCTTTTTCATGCCGAGTCAGAGTTTCATCGGAGTCACCTAGTGCAG”, for which the binding signal is 9130 fluorescence intensity (a.u.). Turning to “AAGACAATTGTGTATCTCTTGTGCACATTTTCCTTCTAATCGGAGTCACCTAGTGCAG”, the binding signal is 8330 fluorescence intensity (a.u.). For “CTCACAATTTTTCACATCACCATGTTCTTTAGTTCCTTAGCGGAGTCACCTAGTGCAG”, the binding signal was 8480 fluorescence intensity (a.u.). Turning to “CCCTGCTTCCTTTCTTCATCGTCCTCAGCTCATCATCTGCCGGAGTCACCTAGTGCAG”, the binding signal is 8940 fluorescence intensity (a.u.). “TCCATGGCATTTCCTACTTCCTATATTTCCTTTTTTATTGCGGAGTCACCTAGTGCAG”: the binding signal is 10600 fluorescence intensity (a.u.). With “GGCTGCGCTTGTACACCTACAGTAGATCTGAAACCTTCTCCGGAGTCACCTAGTGCAG”, the binding signal was 9420 fluorescence intensity (a.u.).

On to “TCATCAGCGGCGGCGGTGTCTTCTTGCTCGGGGAAGGGCTCGGAGTCACCTAGTGCAG”, for which the binding signal was 8680 fluorescence intensity (a.u.). For the sequence “ATACTTTGACCATCAATTTATCCCATGTTATGTTTCCGATCGGAGTCACCTAGTGCAG”, the binding signal is 11100 fluorescence intensity (a.u.). Turning to “CTCTCTCCTCGTCGTAGGTGTCGTCGCCGTACTGCACCATCGGAGTCACCTAGTGCAG”, the binding signal was 9890 fluorescence intensity (a.u.). Then “AAAACCCTCCGGCTCATTCTTGCCCACGCCGCGCCGCCGCCGGAGTCACCTAGTGCAG”, with 8390 fluorescence intensity (a.u.); and “GGCTTACCCAAGAATAACGATCCAACTTGGGGAGGGAGGGCGGAGTCACCTAGTGCAG”, with 10000 fluorescence intensity (a.u.).
